For one molecule, binding results are on record in paper PMC4466651.

Sequences of proteins named here, by UniProt entry; tags and fusion partners are left off.
UniProt P16615: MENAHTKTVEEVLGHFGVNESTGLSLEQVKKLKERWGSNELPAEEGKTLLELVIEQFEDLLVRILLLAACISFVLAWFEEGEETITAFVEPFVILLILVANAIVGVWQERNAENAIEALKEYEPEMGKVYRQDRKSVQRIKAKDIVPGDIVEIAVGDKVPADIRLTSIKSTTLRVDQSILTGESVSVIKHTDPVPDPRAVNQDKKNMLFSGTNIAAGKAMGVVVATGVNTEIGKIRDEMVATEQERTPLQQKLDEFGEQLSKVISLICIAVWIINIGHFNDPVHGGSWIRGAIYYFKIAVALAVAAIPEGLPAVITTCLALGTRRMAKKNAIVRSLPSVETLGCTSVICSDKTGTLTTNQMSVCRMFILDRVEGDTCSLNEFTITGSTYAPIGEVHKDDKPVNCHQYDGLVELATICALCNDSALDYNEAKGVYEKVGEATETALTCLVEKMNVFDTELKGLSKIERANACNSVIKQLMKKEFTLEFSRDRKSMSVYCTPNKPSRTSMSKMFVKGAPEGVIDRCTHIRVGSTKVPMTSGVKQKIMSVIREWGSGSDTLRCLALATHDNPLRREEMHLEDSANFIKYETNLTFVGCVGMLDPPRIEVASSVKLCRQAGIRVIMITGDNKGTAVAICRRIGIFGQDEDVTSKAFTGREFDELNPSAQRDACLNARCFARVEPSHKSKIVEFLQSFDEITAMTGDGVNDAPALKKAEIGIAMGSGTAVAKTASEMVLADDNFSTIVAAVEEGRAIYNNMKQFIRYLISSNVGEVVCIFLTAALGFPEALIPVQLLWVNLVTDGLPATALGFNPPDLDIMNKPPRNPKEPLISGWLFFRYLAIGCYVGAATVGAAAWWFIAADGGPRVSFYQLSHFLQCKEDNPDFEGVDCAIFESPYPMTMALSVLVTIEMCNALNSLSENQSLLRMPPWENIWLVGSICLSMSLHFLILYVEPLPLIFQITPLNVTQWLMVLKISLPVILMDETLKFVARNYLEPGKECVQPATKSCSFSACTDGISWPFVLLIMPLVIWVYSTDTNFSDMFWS

Results are given in words; binding and its absence hold for the method and conditions named. In cells and extracts the contact can be indirect. Some results given as binding are weak or reduced against the parent protein; the word gives no strength. Tags and fused reporters may be left off the sequences shown.

The target of assay [1] is SERCA2, HA-tagged (UniProt P16615). Put plainly: co-IP; SMMC-7721 cells co-transfected with Flag-HRC and HA-SERCA2, lysed after 48 h in 1% NP40 NET buffer; supernatants incubated overnight at 4°C with protein G-Sepharose beads conjugated with rabbit anti-Flag or anti-HA antibody; western blot.
For assay [2] the target is unchanged. Briefly: co-IP; HEK 293T cells co-transfected with Flag-HRC and HA-SERCA2, lysed after 48 h in 1% NP40 NET buffer; supernatants incubated overnight at 4°C with protein G-Sepharose beads conjugated with rabbit anti-Flag or anti-HA antibody; western blot; done in both directions.

B1: histidine-rich calcium binding protein (HRC), FLAG-tagged (protein, UniProt P23327 29-699)
chain: QLRGDGLGFRNRNNSTGVAGLSEEASAELRHHLHSPRDHPDENKDVSTENGHHFWSHPDREKEDEDVSKEYGHLLPGHRSQDHKVGDEGVSGEEVFAEHGGQARGHRGHGSEDTEDSAEHRHHLPSHRSHSHQDEDEDEVVSSEHHHHILRHGHRGHDGEDDEGEEEEEEEEEEEEASTEYGHQAHRHRGHGSEEDEDVSDGHHHHGPSHRHQGHEEDDDDDDDDDDDDDDDDVSIEYRHQAHRHQGHGIEEDEDVSDGHHHRDPSHRHRSHEEDDNDDDDVSTEYGHQAHRHQDHRKEEVEAVSGEHHHHVPDHRHQGHRDEEEDEDVSTERWHQGPQHVHHGLVDEEEEEEEITVQFGHYVASHQPRGHKSDEEDFQDEYKTEVPHHHHHRVPREEDEEVSAELGHQAPSHRQSHQDEETGHGQRGSIKEMSHHPPGHTVVKDRSHLRKDDSEEEKEKEEDPGSHEEDDESSEQGEKGTHHGSRDQEDEEDEEEGHGLSLNQEEEEEEDKEEEEEEEDEERREERAEVGAPLSPDHSEEEEEEEEGLEEDEPRFTIIPNPLDRREEAGGASSEEESGEDTGPQDAQEYGNYQPGSLCGYCSFCNRCTECESCHCDEENMGEHCDQCQHCQFCYLCPLVCETVCAPGSYVDYFSSSLYQALADMLETPEP
With B1, the binding result in assay [1] and in assay [2] was “binds” each time.
